Test results as given in the supplement of paper PMC10849652.
This is one part of the list. Residues, ends and D or L forms follow the SMILES beside them. *: point of attachment. Cbz = O=C(OCc1ccccc1)*

Protein sequences, listed by entry. Tags and fused reporters are not part of them. Lines headed by an entry give the natural chain unless they say otherwise; changes in a name come on top.
UniProt Q6ZRS2, whole entry, looked up: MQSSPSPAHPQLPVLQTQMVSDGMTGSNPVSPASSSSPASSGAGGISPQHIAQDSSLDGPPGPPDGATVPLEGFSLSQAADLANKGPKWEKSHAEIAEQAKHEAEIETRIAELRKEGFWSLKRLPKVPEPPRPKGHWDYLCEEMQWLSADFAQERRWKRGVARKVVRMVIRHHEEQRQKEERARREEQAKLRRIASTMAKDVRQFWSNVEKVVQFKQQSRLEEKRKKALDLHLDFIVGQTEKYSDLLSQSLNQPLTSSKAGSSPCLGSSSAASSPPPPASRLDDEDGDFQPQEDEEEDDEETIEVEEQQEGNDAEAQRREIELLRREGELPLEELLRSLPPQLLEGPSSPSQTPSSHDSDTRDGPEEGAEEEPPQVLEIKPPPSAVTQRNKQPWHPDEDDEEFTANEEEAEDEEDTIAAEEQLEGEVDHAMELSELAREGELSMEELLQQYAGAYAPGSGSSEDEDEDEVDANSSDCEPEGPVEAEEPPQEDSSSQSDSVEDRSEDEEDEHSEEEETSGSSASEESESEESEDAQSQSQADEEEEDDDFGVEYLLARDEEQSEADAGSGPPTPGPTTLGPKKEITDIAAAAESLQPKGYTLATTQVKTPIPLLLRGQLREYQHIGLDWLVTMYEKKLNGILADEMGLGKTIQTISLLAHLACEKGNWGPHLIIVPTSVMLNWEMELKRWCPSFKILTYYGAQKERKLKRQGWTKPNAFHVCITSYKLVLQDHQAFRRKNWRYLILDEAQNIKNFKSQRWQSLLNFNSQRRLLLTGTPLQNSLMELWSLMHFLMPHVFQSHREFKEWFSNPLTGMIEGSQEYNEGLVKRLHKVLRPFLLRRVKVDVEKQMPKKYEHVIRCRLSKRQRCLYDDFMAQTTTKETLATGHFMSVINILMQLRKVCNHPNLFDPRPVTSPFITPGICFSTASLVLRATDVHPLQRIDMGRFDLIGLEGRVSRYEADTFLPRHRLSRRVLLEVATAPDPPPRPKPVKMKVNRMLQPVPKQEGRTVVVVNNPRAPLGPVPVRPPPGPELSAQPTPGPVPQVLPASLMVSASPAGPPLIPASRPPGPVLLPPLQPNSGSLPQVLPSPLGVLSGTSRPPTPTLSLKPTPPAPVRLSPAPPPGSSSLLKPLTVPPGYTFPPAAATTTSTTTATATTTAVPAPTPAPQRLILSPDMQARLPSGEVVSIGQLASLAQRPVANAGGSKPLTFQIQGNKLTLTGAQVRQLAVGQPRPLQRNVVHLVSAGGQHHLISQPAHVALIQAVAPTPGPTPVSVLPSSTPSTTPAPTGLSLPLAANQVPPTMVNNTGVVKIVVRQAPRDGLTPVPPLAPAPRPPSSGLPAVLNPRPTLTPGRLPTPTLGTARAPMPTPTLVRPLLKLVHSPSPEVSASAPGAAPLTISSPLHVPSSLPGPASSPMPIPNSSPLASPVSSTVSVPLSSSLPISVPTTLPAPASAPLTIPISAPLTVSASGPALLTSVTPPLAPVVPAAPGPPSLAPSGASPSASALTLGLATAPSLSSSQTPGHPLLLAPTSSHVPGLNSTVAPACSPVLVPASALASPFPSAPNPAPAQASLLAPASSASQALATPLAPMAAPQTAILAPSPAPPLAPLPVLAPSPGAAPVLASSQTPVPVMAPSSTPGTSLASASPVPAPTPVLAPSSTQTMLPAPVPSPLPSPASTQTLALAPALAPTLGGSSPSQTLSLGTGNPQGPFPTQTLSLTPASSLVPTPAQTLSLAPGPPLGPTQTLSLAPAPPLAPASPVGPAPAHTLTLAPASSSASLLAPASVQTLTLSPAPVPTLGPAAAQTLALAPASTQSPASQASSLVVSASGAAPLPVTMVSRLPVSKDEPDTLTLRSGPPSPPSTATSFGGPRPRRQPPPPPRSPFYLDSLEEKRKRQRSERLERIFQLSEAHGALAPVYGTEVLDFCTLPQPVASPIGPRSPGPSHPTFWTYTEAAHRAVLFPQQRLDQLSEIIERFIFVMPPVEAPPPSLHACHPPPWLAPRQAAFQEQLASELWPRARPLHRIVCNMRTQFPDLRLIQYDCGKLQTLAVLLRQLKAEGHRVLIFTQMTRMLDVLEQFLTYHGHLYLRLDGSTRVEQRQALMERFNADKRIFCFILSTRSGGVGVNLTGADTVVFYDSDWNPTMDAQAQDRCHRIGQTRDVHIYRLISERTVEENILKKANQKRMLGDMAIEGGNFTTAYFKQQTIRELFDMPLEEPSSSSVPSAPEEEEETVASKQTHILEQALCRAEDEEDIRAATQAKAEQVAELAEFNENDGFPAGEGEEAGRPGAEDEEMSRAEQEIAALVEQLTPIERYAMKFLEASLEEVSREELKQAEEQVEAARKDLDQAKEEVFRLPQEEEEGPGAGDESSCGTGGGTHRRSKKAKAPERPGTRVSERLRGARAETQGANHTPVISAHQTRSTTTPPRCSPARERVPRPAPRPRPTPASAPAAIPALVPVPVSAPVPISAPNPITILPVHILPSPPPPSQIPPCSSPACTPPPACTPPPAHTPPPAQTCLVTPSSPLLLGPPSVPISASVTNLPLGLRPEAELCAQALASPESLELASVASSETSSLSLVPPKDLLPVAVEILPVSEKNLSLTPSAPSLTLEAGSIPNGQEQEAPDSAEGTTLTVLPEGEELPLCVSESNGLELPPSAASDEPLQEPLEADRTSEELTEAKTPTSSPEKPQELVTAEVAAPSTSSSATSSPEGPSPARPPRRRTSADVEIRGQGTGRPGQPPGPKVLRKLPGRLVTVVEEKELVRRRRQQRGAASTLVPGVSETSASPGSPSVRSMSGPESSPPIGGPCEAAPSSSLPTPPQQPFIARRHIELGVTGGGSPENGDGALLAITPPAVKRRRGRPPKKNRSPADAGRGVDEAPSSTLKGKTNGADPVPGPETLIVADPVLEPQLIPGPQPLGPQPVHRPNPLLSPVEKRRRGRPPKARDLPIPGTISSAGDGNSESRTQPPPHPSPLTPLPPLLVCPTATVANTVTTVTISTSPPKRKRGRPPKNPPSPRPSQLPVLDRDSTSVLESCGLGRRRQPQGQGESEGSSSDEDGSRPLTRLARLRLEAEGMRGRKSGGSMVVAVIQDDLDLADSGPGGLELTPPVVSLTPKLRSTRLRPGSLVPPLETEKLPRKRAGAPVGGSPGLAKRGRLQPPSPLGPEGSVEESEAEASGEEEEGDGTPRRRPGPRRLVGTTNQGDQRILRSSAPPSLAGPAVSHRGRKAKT
UniProt O76061, whole entry, looked up: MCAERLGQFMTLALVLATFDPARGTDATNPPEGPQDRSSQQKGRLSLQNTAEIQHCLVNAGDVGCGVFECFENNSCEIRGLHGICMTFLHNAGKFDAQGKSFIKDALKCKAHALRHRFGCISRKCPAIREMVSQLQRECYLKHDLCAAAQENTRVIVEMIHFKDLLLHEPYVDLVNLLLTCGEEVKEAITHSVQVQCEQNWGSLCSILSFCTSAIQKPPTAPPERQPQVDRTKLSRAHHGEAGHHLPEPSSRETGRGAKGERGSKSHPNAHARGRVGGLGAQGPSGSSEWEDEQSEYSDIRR
UniProt Q9Y365: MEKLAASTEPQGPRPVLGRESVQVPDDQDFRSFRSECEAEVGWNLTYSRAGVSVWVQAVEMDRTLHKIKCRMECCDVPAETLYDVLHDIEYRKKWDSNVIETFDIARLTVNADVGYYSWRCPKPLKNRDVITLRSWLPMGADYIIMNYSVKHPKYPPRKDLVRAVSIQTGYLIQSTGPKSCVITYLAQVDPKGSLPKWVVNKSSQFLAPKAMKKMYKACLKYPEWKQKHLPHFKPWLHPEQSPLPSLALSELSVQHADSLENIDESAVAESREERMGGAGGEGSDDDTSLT
UniProt Q8N0Z3: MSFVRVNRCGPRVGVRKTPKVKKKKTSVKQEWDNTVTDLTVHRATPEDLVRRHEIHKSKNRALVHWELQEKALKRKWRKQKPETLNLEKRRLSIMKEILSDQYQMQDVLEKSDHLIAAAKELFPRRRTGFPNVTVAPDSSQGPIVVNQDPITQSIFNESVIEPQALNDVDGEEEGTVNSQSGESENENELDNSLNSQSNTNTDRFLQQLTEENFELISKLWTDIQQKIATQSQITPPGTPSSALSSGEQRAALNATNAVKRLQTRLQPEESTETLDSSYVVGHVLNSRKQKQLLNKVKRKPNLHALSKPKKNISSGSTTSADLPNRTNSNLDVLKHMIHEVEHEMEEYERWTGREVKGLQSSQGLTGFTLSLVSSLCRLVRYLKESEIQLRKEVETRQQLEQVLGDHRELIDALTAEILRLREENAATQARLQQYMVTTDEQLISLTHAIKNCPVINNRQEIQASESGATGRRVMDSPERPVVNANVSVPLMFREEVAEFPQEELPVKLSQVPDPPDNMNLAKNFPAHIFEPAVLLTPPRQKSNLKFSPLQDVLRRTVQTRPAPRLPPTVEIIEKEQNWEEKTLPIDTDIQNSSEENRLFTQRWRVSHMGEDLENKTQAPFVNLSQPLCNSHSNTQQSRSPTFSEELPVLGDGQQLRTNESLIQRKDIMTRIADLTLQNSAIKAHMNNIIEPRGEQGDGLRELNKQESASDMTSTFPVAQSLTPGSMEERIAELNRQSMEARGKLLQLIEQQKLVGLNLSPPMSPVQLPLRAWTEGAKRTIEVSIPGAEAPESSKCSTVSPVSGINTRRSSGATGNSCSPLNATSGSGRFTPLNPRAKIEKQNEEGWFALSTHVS
UniProt Q9C0H9: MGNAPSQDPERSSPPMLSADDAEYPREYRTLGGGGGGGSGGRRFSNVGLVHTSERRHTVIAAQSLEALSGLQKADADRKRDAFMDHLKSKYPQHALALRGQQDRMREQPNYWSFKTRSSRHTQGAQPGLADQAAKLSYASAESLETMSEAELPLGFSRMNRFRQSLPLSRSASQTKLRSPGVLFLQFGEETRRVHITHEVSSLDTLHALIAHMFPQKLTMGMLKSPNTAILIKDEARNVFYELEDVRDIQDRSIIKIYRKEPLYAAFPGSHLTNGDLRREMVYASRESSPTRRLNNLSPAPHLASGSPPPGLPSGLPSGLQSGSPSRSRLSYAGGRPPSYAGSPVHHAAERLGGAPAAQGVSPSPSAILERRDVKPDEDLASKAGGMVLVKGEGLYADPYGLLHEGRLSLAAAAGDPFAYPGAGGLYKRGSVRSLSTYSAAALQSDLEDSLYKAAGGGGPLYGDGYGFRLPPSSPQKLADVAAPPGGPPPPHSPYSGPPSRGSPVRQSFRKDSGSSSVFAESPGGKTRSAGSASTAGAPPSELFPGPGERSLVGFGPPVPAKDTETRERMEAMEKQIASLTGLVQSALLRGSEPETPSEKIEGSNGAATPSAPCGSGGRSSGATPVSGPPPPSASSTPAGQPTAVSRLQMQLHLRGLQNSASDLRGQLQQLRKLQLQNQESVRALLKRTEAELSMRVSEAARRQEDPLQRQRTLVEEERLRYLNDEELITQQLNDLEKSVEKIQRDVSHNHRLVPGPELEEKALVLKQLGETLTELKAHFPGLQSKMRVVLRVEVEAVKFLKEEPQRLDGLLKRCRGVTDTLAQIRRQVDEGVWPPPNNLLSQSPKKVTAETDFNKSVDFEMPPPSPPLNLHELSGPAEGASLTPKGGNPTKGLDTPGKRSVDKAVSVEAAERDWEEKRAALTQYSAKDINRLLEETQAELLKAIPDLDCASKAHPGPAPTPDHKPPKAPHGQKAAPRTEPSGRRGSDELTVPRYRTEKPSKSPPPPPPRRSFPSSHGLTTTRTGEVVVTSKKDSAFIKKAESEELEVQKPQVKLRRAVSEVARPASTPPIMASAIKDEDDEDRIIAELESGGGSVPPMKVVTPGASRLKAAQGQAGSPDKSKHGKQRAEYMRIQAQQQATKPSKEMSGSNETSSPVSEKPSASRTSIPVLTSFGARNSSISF

What was measured:
Assay in all cases: log2 fold change, soluble protein after heating vs DMSO (PISA); higher = thermal stabilisation; K562 cells, 10 uM, 30 min; active = over 0.2 and 3.5 SD of the protein, either way, in both replicates (recomputed)
[1] = compound: C#Cc1cccc(Nc2ncnc3cc(OCCOC)c(OCCOC)cc23)c1 [erlotinib]
In short: (§1)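 Thermal stability values are relative to control samples and come from duplicates. They are expressed as log2 fold changes. For measurement, K562 cells (2×10^6 cells/mL) received 10 μM compound for 30 min, and aliquots were heated for 3 min over 48°C-58°C, pooled, and extracted at 4°C in PBS with 0.5% NP-40. Soluble protein, the supernatant after 21,000xg for 90 min, was quantified by TMTpro 16plex LC-MS/MS with equalised channel sums.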

[2] = compound: C1=CC(=CC=C1C2=NC3=C(N2)C=C(C=C3)C(=O)N)OC4=CC=C(C=C4)Cl
In short: as §1

[3] = compound: C1=CC2=NC=CN=C2C=C1/C=C/3\C(=O)NC(=O)S3
In short: as §1

[4] = compound: C1=CC=C(C=C1)C2=NC(=C(N2)C3=CC=NC=C3)C4=CC(=C(C=C4)Cl)O
In short: as §1

[5] = compound: C1CCN(C1)C(=O)NC2=CC=CC(=C2)NC3=NC=C(C(=N3)NCCC4=CN=CN4)Br
In short: as §1

[6] = compound: C1CN(CCC1(CC2=CC=C(C=C2)Cl)N)C3=NC=NC4=C3C=CN4
In short: as §1

[7] = compound: C1COCCN1CCN2C3=CC=CC=C3N=C2NC(=O)C4=CC(=CC=C4)[N+](=O)[O-] [IRAK-1-4 Inhibitor I]
In short: as §1

[8] = compound: C=CC(=O)N1CCC[C@@H](n2nc(-c3ccc(Oc4ccccc4)cc3)c3c(N)ncnc32)C1 [ibrutinib]
In short: as §1

[9] = compound: CC(C)(C)Cn1c(N)nc2ccc(-c3[nH]c(C(C)(C)C)nc3-c3ccc(F)cc3)nc21 [ralimetinib]
In short: as §1

[10] = compound: CC(C)C1=C2N=C(C=C(N2N=C1)NCC3=CC=CC=C3)NCCCCCCN
In short: as §1

[11] = compound: CC(C)C[C@@H](C=O)NC(=O)[C@H](CC(C)C)NC(=O)[C@H](CC(C)C)NC(=O)OCc1ccccc1
In short: as §1

[12] = compound: CC(C)N(C[C@H]1O[C@@H](n2cnc3c(N)ncnc32)[C@H](O)[C@@H]1O)[C@H]1C[C@@H](CCc2nc3cc(C(C)(C)C)ccc3[nH]2)C1 [pinometostat]
In short: as §1

[13] = compound: CC1=C(C2=C(C=C1)C(=O)C3=CC=CC=C3N2CCCN)C
In short: as §1

[14] = compound: CC1=C(C(CC(=O)N1)C2=CC=C(C=C2)C(F)(F)F)C(=O)NC3=C(C=C4C(=C3)C=NN4)F
In short: as §1

[15] = compound: C1=CC(=C(C=C1Cl)C2=NC3=NC=CN=C3C(=N2)NC4=CC=NC=C4)F
In short: as §1

[16] = compound: CC(C)(O)CC(=O)NCCn1ccc2ncnc(Nc3ccc(Oc4cccc(C(F)(F)F)c4)c(Cl)c3)c21
In short: as §1

[17] = compound: C/C(=N\NC(=O)C1=CC(=CC=C1)S(=O)(=O)N2CCOCC2)/C3=C(C=CC(=C3)Cl)O
In short: as §1

[18] = compound: C1=CC2=C(C=CC(=C2)/C=C\3/C(=O)NC(=NCC4=CC=CS4)S3)N=C1
In short: as §1

[19] = compound: C1=CC=C2C(=C1)C3=NNC4=CC=CC(=C43)C2=O
In short: as §1

[20] = compound: CC(=O)c1cnc2ccc(-c3cc(Cl)c(O)c(Cl)c3)nc2c1N[C@H]1CC[C@H](CN(C)C)CC1
In short: as §1

Measured: log2 fold change

SRCAP (UniProt Q6ZRS2)
active: [7] -0.42
inactive: [1] 0.039 | [2] 0.031 | [3] 0.117 | [4] -0.191 | [5] 0.059 | [6] -0.254 | [8] 0 | [9] 0.036 | [10] 0.046 | [11] 0.12 | [12] 0.037 | [13] 0.103

STC2 (UniProt O76061)
inactive: [1] -0.023 | [2] -0.052 | [3] 0.127 | [4] -0.214 | [8] -0.02 | [9] -0.085 | [10] 0.361 | [11] -0.023 | [14] -0.031

STARD10 (UniProt Q9Y365)
inactive: [1] 0.165 | [15] 0.185 | [2] 0.151 | [16] -0.327 | [10] -0.415

SPICE1 (UniProt Q8N0Z3)
inactive: [3] -0.34 | [8] 0.199 | [14] 0.121

Reprinted from the results shown (two entries):
STC2 (UniProt O76061)
inactive: [1] -0.023 | [2] -0.052 | [3] 0.127 | [4] -0.214 | [8] -0.02 | [9] -0.085 | [10] 0.361 | [11] -0.023 | [14] -0.031

STARD10 (UniProt Q9Y365)
inactive: [1] 0.165 | [15] 0.185 | [2] 0.151 | [16] -0.327 | [10] -0.415

(cont.)

SRCIN1 (UniProt Q9C0H9)
inactive: [1] 0.004 | [17] 0.03 | [2] -0.019 | [18] -0.027 | [3] -0.009 | [4] -0.195 | [19] 0.029 | [8] -0.081 | [20] -0.169 | [9] 0.147 | [10] -0.068 | [11] 0.052
